Results are given in words; binding and its absence hold for the method and conditions named. Some binding calls cover weakened binding; strength is not graded here.
Target: Hsp82-Gal4 DNA-binding domain (BD) fusion (S. cerevisiae) (UniProt P02829)
Assay: two-hybrid; Gal4 system in mated PJ69-4 cells; quantitative GAL4 promoter-directed β-galactosidase expression; measured at 25 °C and 39 °C (heat stress); control: pBDC fusion with empty pADC

Amino acid sequences for entries named in this document (tags omitted).
UniProt P51534: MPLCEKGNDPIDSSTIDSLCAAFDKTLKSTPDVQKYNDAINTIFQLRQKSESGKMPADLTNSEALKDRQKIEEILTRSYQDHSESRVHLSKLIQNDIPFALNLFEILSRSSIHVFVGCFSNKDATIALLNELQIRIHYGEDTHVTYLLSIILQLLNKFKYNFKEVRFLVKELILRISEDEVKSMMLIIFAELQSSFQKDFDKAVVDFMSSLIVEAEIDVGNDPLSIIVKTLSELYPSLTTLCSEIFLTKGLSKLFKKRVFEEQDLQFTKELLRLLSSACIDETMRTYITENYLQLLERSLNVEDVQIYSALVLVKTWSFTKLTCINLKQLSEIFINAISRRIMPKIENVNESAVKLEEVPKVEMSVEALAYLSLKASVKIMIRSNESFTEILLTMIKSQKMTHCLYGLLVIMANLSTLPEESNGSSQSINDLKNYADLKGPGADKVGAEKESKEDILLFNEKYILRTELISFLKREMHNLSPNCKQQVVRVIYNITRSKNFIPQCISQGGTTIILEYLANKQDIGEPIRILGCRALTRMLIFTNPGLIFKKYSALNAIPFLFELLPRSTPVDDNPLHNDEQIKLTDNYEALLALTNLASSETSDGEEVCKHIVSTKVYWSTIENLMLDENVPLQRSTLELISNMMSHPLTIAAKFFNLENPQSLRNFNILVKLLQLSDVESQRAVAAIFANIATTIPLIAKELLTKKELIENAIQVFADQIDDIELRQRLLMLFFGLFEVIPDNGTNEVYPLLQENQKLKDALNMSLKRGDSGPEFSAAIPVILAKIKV

In the case of “Gal4 activator domain (AD)-She4 fusion, wild type (from UniProt P51534 1-789)”, the binding is reported as “binds”.
